The other results are listed elsewhere or left out.

Chains of the proteins cited; added tags and fusions are not shown. Lines headed by an entry give the natural chain unless they say otherwise; changes in a name come on top.
UniProt Q9NRP2: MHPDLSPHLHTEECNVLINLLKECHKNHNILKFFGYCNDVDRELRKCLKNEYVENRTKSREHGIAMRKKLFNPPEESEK
UniProt Q9NX76: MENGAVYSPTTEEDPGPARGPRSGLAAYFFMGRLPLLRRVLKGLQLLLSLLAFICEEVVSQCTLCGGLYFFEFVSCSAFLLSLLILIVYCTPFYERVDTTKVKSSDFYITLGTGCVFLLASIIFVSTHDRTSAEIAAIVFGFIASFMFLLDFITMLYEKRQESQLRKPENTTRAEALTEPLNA
UniProt Q9BT09: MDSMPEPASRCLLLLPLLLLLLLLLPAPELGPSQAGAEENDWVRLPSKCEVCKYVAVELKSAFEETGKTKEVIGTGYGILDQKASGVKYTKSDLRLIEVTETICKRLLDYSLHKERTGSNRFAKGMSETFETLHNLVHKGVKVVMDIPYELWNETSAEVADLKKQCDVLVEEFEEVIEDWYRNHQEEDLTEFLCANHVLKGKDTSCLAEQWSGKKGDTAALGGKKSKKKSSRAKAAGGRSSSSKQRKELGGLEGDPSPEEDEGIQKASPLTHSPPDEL
UniProt Q99828: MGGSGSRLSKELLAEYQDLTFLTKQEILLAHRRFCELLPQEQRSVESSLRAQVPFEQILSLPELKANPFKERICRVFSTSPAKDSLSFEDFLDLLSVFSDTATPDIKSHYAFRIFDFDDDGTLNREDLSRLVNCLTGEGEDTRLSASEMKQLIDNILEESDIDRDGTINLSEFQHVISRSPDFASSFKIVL
UniProt Q9H6Q4: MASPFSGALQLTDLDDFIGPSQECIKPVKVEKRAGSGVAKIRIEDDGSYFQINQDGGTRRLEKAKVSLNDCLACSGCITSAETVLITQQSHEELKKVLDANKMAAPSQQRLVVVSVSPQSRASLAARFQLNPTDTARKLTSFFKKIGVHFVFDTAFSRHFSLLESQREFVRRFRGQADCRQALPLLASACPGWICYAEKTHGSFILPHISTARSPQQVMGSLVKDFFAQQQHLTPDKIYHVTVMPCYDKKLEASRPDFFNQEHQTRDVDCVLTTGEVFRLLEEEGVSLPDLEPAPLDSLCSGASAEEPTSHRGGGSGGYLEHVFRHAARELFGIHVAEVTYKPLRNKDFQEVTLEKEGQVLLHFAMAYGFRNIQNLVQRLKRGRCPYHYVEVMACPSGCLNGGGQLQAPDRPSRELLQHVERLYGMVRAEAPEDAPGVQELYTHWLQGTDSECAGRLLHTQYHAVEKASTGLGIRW
UniProt Q9GZY4: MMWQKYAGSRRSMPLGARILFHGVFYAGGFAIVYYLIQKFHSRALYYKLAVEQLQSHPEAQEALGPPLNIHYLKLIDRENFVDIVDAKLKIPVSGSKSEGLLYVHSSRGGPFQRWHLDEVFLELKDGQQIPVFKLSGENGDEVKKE
UniProt Q9Y2B0: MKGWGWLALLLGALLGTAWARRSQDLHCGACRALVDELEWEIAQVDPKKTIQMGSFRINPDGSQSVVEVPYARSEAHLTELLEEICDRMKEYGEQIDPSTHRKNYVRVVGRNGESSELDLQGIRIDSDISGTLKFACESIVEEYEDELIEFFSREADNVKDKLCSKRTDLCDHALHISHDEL
UniProt Q9NZ45: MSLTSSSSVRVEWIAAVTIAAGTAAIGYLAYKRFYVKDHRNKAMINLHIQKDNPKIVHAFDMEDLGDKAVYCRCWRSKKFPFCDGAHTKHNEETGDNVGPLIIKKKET
UniProt Q9H9A5, whole entry, looked up: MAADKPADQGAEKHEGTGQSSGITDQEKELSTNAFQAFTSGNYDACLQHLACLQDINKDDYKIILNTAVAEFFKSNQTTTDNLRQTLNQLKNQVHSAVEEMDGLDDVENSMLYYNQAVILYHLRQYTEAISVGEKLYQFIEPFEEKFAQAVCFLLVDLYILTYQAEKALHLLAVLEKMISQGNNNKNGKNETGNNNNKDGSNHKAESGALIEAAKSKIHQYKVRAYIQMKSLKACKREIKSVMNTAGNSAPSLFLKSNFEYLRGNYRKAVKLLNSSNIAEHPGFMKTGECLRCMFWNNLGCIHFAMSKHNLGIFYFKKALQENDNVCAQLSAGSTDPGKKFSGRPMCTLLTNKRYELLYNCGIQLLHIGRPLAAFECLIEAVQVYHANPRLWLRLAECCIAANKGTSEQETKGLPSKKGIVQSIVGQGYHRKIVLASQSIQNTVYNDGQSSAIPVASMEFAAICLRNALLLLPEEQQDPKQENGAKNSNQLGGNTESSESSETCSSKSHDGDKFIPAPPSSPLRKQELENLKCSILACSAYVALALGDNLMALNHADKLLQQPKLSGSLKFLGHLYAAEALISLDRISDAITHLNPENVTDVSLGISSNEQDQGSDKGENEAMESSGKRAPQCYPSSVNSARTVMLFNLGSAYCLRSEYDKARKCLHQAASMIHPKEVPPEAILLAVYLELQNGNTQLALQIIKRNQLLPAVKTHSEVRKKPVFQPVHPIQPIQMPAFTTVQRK
UniProt Q96BR5: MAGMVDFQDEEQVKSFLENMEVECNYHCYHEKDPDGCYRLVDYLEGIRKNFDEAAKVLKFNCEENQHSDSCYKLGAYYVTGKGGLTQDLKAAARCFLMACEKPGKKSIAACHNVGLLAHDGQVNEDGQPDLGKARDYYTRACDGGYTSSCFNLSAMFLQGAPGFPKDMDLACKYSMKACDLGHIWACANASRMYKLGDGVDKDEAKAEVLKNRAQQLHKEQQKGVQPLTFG
UniProt Q9C0A0: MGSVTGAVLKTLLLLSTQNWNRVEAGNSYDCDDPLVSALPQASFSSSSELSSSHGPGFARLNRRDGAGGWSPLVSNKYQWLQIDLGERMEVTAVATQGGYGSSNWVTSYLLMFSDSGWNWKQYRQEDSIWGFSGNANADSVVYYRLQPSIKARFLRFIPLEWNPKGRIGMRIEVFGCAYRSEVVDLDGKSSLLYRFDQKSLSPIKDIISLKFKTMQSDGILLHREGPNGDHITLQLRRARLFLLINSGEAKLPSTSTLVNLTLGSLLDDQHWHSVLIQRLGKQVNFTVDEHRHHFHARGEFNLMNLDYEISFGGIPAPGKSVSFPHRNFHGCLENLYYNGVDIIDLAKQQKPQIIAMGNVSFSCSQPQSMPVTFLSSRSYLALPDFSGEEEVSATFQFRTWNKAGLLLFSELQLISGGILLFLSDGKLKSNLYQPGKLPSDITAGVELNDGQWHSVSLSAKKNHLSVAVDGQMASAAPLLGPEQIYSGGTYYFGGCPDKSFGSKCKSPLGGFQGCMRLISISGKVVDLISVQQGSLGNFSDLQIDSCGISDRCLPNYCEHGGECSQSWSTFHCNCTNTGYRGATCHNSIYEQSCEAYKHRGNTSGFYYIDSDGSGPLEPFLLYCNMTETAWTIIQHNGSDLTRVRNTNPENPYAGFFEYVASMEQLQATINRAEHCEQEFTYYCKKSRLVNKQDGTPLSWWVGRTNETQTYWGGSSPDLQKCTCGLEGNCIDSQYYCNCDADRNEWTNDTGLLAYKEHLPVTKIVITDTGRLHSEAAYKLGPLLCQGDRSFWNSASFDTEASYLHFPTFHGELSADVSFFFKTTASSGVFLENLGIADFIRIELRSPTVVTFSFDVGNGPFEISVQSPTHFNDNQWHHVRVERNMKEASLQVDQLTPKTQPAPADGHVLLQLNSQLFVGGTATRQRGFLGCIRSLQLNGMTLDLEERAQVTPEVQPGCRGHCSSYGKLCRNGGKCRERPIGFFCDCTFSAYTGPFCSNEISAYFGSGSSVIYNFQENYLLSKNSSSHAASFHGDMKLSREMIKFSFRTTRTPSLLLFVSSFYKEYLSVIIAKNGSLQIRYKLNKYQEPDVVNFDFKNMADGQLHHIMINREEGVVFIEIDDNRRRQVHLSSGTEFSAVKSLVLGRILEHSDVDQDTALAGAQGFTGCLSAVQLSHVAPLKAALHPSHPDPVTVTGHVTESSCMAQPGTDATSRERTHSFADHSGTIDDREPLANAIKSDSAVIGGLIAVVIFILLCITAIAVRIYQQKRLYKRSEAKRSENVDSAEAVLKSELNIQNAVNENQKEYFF
UniProt Q7Z7K0: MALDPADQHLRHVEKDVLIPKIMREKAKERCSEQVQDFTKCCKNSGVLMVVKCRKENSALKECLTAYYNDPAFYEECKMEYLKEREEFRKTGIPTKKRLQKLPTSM
UniProt Q8WUX9: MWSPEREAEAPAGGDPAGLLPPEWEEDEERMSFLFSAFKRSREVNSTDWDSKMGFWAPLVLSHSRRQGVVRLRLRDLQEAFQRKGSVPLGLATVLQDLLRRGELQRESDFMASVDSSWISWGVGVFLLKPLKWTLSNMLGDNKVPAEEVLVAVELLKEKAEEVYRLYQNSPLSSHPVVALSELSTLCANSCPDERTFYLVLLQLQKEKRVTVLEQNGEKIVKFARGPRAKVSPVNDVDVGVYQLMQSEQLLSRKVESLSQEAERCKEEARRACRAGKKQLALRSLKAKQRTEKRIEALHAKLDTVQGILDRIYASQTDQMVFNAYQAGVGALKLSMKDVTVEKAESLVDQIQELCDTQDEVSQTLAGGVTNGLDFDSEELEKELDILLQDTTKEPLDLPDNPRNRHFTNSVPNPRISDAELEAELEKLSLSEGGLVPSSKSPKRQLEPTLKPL
UniProt P0C7P0: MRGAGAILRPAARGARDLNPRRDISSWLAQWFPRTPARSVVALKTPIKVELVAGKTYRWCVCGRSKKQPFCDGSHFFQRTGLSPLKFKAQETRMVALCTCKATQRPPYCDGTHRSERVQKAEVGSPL
UniProt Q8WUH1: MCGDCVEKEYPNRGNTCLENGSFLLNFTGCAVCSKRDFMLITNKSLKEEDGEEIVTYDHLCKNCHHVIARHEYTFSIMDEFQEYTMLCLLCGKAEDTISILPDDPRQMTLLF
UniProt Q8NFW8: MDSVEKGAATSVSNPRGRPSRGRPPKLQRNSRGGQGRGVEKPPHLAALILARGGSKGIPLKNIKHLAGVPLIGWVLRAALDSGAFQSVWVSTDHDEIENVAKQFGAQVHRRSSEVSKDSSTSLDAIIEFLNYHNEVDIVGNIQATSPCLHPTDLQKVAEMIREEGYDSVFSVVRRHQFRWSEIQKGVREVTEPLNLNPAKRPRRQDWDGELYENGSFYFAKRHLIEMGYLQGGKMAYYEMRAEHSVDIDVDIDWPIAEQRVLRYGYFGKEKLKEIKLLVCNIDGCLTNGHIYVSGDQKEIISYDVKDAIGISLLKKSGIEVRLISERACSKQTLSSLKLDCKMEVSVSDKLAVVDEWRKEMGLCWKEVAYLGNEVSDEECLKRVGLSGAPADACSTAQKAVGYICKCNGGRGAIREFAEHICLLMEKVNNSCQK
UniProt Q6P4Q7: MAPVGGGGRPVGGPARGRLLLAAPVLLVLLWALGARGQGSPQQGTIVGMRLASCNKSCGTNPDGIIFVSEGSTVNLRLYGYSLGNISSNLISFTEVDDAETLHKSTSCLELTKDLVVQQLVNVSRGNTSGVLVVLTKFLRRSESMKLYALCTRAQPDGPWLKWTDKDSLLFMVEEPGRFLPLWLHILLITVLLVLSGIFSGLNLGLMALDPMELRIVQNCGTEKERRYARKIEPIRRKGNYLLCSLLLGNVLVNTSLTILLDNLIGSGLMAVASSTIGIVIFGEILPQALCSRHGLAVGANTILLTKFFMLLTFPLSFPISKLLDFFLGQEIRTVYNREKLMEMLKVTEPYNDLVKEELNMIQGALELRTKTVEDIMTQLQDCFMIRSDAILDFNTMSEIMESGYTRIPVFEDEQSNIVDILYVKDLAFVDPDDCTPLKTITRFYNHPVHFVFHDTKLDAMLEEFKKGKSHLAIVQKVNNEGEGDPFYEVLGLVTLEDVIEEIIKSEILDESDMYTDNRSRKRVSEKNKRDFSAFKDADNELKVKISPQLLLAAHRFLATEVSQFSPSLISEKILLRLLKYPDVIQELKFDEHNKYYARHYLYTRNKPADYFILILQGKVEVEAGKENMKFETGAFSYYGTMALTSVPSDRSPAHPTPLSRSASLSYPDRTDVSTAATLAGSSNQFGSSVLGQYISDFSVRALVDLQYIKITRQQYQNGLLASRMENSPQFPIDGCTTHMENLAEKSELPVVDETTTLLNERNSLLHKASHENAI
UniProt Q8NCH0: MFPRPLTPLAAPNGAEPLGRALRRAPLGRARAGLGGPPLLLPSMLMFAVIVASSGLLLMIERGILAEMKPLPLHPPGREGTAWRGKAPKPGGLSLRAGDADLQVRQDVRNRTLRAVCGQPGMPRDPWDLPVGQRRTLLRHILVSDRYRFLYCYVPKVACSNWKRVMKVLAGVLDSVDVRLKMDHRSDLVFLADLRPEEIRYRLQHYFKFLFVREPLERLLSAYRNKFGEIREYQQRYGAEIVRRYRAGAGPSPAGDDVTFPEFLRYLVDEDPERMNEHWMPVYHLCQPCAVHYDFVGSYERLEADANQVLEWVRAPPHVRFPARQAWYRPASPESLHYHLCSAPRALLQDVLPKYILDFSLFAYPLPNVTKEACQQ
UniProt Q8N5K1: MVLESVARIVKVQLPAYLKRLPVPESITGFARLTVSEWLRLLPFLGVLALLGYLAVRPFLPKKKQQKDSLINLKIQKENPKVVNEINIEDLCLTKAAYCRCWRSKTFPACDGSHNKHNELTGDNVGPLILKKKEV

Compound in the test: C1=CC=C2C(=C1)C3=NNC4=CC=CC(=C43)C2=O
The test can be described thus: log2 fold change, soluble protein after heating vs DMSO (PISA); higher = thermal stabilisation; K562 cells, 10 uM, 30 min; active = over 0.2 and 3.5 SD of the protein, either way, in both replicates (recomputed). The gist of the method:
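K562 cells at 2×10^6 cells/mL were given 10 μM compound for 30 min. Aliquots then went through 3 min of heating across 48°C-58°C, were pooled, and were extracted in PBS with 0.5% NP-40 at 4°C, and the supernatant after 21,000xg for 90 min was quantified by TMTpro 16plex LC-MS/MS with channel sums equalised. Thermal stability relative to control samples, from duplicates, is given as log2 fold change.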
Turning to CMC2 (UniProt Q9NRP2), the log2 fold change is inactive: 0.026.

Take CMTM6 (UniProt Q9NX76): the log2 fold change is inactive: -0.037.

With CNPY3 (UniProt Q9BT09), the log2 fold change was inactive: 0.018.

Consider CIB1 isoform 2 (UniProt Q99828), for which the log2 fold change was inactive: 0.04.

Take CNST (UniProt Q6PJW8): the log2 fold change was inactive: -0.027.

In the case of CIAO3 (UniProt Q9H6Q4), the log2 fold change was inactive: -0.03.

Take CNOT11 (UniProt Q9UKZ1): the log2 fold change was inactive: -0.058.

Regarding COA1 (UniProt Q9GZY4), the log2 fold change was inactive: -0.003.

For CNPY2 (UniProt Q9Y2B0), the log2 fold change is inactive: -0.026.

On to CISD1 (UniProt Q9NZ45), for which the log2 fold change was inactive: -0.029.

As to CNOT6L (UniProt Q96LI5), the log2 fold change was inactive: -0.016.

In the case of CNOT10 isoform 6 (UniProt Q9H9A5), the log2 fold change was inactive: -0.01.

Consider CNOT3 (UniProt O75175), for which the log2 fold change is inactive: 0.005.

For COA7 (UniProt Q96BR5), the log2 fold change is inactive: 0.005.

Turning to CNTNAP4 (UniProt Q9C0A0), the log2 fold change is inactive: -0.069.

For the target CMC1 (UniProt Q7Z7K0), the log2 fold change was inactive: -0.066.

On to CHMP7 (UniProt Q8WUX9), for which the log2 fold change was inactive: -0.078.

On to CISD3 (UniProt P0C7P0), for which the log2 fold change is inactive: -0.008.

As to CHURC1 isoform 2 (UniProt Q8WUH1), the log2 fold change was inactive: -0.082.

With CNOT9 isoform 2 (UniProt Q92600), the log2 fold change was inactive: -0.024.

With CKMT2 (UniProt P17540), the log2 fold change was inactive: 0.081.

Regarding COL1A2 (UniProt P08123), the log2 fold change is inactive: -0.183.

With CMAS (UniProt Q8NFW8), the log2 fold change is inactive: -0.036.

Consider CNP (UniProt P09543), for which the log2 fold change is inactive: 0.016.

Take CHORDC1 (UniProt Q9UHD1): the log2 fold change is inactive: 0.014.

For CKM (UniProt P06732), the log2 fold change was inactive: 0.041.

For CNNM3 (UniProt Q8NE01), the log2 fold change was inactive: -0.067.

As for CNNM4 (UniProt Q6P4Q7), the log2 fold change was inactive: -0.006.

In the case of CHST14 (UniProt Q8NCH0), the log2 fold change is inactive: -0.064.

With CKAP5 (UniProt Q14008), the log2 fold change was inactive: 0.02.

With CISD2 (UniProt Q8N5K1), the log2 fold change is inactive: -0.01.

For CKMT1A (UniProt P12532), the log2 fold change was inactive: -0.005.

For the origin of these results see the supplement of paper PMC10849652.
